Measurements reported in PMC7921015, “Spatiotemporal GLP-1 and GIP receptor signaling and trafficking/recycling dynamics induced by selected receptor mono- and dual-agonists” (Molecular Metabolism, 2021).
These are yes or no findings as the source states them, for the method shown. In cells and extracts the contact can be indirect.

Protein sequences, listed by entry. Tags and fused reporters are not part of them. Residues count along the entry.
UniProt P43220, residues 24-463: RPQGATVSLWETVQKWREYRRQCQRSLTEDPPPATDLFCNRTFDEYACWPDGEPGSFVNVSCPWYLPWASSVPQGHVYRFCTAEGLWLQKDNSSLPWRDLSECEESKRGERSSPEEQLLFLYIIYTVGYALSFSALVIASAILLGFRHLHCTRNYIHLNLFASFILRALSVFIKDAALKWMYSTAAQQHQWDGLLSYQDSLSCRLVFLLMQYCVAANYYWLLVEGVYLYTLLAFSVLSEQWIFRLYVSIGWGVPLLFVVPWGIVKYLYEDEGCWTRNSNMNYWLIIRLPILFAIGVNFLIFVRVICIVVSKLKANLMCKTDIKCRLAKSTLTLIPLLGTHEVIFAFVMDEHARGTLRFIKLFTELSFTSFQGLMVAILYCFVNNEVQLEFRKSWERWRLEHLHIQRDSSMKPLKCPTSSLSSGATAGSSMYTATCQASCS
UniProt P49407: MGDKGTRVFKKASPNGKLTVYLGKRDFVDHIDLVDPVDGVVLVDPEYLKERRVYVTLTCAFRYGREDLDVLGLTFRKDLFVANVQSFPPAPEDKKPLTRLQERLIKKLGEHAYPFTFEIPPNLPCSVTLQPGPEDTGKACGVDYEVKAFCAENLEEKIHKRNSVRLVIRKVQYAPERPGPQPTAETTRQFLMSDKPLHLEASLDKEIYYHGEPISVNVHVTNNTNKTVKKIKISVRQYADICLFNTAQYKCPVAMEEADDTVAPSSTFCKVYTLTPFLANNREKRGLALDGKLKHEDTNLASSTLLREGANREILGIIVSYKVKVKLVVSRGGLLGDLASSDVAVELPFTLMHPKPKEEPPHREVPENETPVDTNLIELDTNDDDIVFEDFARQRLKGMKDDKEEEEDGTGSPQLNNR
UniProt P32121: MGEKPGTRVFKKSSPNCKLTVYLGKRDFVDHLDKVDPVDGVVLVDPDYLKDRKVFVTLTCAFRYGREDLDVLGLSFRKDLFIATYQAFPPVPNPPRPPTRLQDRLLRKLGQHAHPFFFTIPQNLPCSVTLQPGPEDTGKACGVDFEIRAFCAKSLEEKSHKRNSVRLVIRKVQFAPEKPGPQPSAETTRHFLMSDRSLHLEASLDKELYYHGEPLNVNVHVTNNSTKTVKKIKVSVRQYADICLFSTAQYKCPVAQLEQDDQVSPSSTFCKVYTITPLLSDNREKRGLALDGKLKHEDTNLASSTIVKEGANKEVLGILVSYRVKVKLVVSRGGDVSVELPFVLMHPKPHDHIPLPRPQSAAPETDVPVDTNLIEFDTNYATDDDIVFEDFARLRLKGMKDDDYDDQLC

Target: Human GLP-1R-GFP (human) (UniProt P43220)
Assay: FRET or BRET; as a3, GLP-1R-GFP with β-arrestin1- or β-arrestin2-Rluc8 in live HEK293T, with tirzepatide as the agonist

## β-arrestin 1-Rluc8 (from UniProt P49407 1-418)
  binding: no binding (condition: with tirzepatide as the agonist)

## β-arrestin 2-Rluc8 (from UniProt P32121 1-409)
  binding: no binding (condition: with tirzepatide as the agonist)
